Here are results for 7 molecules from patent US20140363438A1, “NEUREGULIN ANTIBODIES AND USES THEREOF” (Genentech, Inc., priority 2011, published 2014).

For experiment [1], the target named is T1, Recombinant human NRG1-β ECD domain (R&D Systems, cat#377-HB/CF) (human) (UniProt Q02297).
T1 sequence: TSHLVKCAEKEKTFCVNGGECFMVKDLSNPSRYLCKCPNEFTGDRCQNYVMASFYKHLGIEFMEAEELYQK
Description: SPR (BIAcore T100), IgG captured by anti-human Fc, 125 nM NRG1β injected; sensorgram.

The target in experiment [2] is T1, Recombinant human NRG1-β ECD domain (R&D Systems, cat#377-HB/CF) (human). The experiment in a line: competition ELISA on NRG1β (HRG1β); signal of 526.02, 526.90 or 538.24.71 against rising 538.24.71; the format is not described in the text.
Experiment [3] has the same target. The experiment in a line: competition assay, competitor 526.09.
Experiment [4] has the same target. Description: competition assay, competitor 526.90.
Experiment [5] has the same target. The experiment in a line: competition assay, competitor 538.24.17.
For experiment [6] the target is unchanged. The experiment in a line: competition assay, competitor 538.24.71.
The target is the same in experiment [7]. Description: competition ELISA on NRG1β; signal of 526.90 against rising 538.24.71.

No constants are given. Whether binding was seen depends on the method and setting. Some entries that bind do so weakly or less than the wild type.

B1: anti-NRG1 antibody 538.24 (antibody, human IgG1, V domains shown)
VH: EVQLVESGGGLVQPGGSLRLSCAASGFTFSGTWIHWVRQAPGKGLEWVAAITPADGSTNYADSVKGRFTISADTSKNTAYLQMNSLRAEDTAVYYCATYMFAMDYWGQGTLVTVSS
VL: DIQMTQSPSSLSASVGDRVTITCRASQDVSTAVAWYQQKPGKAPKLLIYSASFLYSGVPSRFSGSGSGTDFTLTISSLQPEDFATYYCQQSYTTPPTFGQGTKVEIKR
notes: also called YW538.24
For B1, the binding result in experiment [1] is on record as “binds”.

B2: anti-NRG1 antibody 538.24.71 (antibody, human IgG1, kappa, V domains shown)
VH: EVQLVESGGGLVQPGGSLRLSCAASGFTFSGTWIHWVRQAPGKGLEWVAAITPADGSTNYADSVKGRFTISADTSKNTAYLQMNSLRAEDTAVYYCATYMFAMDYWGQGTLVTVSS
VL: DIQMTQSPSSLSASVGDRVTITCRASQDVSISLAWYQQKPGKAPKLLIYGASNLESGVPSRFSGSGSGTDFTLTISSLQPEDFATYYCQQHYTLPFTFGQGTKVEIKR
notes: also called YW538.24.71
Turning to B2, the binding entry in experiment [2], in experiment [1] and in experiment [3] was “binds” each time.

B3: 538.24.38 (antibody, V domains shown)
VH: EVQLVESGGGLVQPGGSLRLSCAASGFTFSGTWIHWVRQAPGKGLEWVAAITPADGSTNYADSVKGRFTISADTSKNTAYLQMNSLRAEDTAVYYCATYMFAMDYWGQGTLVTVSS
VL: DIQMTQSPSSLSASVGDRVTITCRASQDVSTAVAWYQQKPGKAPKLLIYSASFLYSGVPSRFSGSGSGTDFTLTISSLQPEDFATYYCQQSYTIPMTFGQGTKVEIK
notes: also called YW538.24.38; copies: 2 + 2
In the case of B3, in experiment [1], the binding entry is given as “binds”.

B4: anti-NRG1 antibody 538.24.17 (antibody, human IgG1, V domains shown)
VH: EVQLVESGGGLVQPGGSLRLSCAASGFTFSGTWIHWVRQAPGKGLEWVAAITPADGSTNYADSVKGRFTISADTSKNTAYLQMNSLRAEDTAVYYCATYMFAMDYWGQGTLVTVSS
VL: DIQMTQSPSSLSASVGDRVTITCRASQDVSTAVAWYQQKPGKAPKLLIYSASFLYSGVPSRFSGSGSGTDFTLTISSLQPEDFATYYCQQSYWMPPTFGQGTKVEIKR
notes: also called YW538.24.17
Take B4: the binding entry in experiment [1] and in experiment [4] was “binds” each time.

B5: anti-NRG1 antibody 538.24.94 (antibody, human IgG1, V domains shown)
VH: EVQLVESGGGLVQPGGSLRLSCAASGFTFSGTWIHWVRQAPGKGLEWVAAITPADGSTNYADSVKGRFTISADTSKNTAYLQMNSLRAEDTAVYYCATYMFAMDYWGQGTLVTVSS
VL: DIQMTQSPSSLSASVGDRVTITCRASQDVKKSLAWYQQKPGKAPKLLIYGASNLESGVPSRFSGSGSGTDFTLTISSLQPEDFATYYCQQHYTLPLTFGQGTKVEIKR
notes: also called YW538.24.94
Consider B5, for which the binding entry in experiment [1] is “binds”.

B6: anti-NRG1 antibody 538.24.36 (antibody, human IgG1, V domains shown)
VH: EVQLVESGGGLVQPGGSLRLSCAASGFTFSGTWIHWVRQAPGKGLEWVAAITPADGSTNYADSVKGRFTISADTSKNTAYLQMNSLRAEDTAVYYCATYMFAMDYWGQGTLVTVSS
VL: DIQMTQSPSSLSASVGDRVTITCRASQNVDRSLAWYQQKPGKAPKLLIYAASSLESGVPSRFSGSGSGTDFTLTISSLQPEDFATYYCQQHYTLPFTFGQGTKVEIKR
notes: also called YW538.24.36
Turning to B6, the binding result in experiment [1] is reported as “binds”.

B7: anti-NRG1 antibody 526.90 (antibody, human IgG1, V domains shown)
VH: EVQLVESGGGLVQPGGSLRLSCAASGFTFSGNAMSWVRQAPGKGLEWVSWIYPSGGNTYYADSVKGRFTISADTSKNTAYLQMNSLRAEDTAVYYCARSYILSYPSITWAFDYWGQGTLVTVSS
VL: DIQMTQSPSSLSASVGDRVTITCRASQSISSYLAWYQQKPGKAPKLLIYGASSRASGVPSRFSGSGSGTDFTLTISSLQPEDFATYYCQQSYSTPITFGQGTKVEIKR
notes: also called YW526.90
With B7, the binding entry in experiment [5], in experiment [6] and in experiment [7] was “binds” each time.
